The supplement of paper PMC10849652
The other results are listed elsewhere or left out.

Amino acid sequences for entries named in this document (tags omitted). A change or cut given only in a name is not applied to a line headed by its entry.
UniProt Q9ULH7: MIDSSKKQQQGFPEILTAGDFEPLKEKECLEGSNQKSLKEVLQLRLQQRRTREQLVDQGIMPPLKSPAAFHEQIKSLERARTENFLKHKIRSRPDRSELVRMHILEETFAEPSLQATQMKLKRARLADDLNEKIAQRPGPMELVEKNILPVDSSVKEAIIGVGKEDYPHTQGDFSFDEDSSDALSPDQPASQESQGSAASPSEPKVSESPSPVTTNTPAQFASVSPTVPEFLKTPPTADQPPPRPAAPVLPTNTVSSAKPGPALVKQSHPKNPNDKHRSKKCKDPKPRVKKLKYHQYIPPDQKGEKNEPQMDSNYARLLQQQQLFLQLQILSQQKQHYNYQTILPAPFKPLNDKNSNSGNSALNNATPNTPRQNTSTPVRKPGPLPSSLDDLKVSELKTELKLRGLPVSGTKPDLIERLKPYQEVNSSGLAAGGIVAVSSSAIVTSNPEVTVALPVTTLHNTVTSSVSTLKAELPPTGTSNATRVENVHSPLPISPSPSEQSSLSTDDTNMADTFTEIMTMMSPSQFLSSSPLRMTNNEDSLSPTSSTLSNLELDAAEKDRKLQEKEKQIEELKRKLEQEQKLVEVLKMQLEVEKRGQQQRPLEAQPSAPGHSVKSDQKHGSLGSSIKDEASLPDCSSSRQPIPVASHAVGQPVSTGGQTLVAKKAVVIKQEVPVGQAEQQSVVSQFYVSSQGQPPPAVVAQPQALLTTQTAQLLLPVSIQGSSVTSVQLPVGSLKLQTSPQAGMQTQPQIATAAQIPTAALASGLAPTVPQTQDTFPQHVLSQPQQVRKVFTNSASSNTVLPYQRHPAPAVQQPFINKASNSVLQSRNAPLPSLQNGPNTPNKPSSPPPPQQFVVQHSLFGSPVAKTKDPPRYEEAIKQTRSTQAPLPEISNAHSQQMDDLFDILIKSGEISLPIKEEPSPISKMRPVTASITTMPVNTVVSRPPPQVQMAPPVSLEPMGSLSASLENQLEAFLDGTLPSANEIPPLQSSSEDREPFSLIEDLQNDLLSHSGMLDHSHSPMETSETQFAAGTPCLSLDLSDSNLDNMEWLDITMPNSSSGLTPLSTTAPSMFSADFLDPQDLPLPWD
UniProt P26038, whole entry, looked up: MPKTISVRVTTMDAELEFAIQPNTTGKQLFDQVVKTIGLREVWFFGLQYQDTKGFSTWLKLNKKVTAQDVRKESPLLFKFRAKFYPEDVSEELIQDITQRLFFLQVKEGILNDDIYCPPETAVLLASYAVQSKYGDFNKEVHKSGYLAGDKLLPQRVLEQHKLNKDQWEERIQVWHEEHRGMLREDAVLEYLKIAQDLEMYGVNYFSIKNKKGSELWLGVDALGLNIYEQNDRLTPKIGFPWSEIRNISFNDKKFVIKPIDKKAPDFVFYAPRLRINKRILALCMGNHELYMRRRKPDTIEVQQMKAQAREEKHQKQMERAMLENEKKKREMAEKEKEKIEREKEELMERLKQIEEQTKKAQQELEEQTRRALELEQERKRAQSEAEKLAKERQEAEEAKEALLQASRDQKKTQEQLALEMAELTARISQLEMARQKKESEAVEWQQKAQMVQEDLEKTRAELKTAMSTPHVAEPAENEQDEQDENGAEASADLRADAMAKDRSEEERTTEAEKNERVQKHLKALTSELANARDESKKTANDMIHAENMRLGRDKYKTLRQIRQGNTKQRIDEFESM
UniProt P00846: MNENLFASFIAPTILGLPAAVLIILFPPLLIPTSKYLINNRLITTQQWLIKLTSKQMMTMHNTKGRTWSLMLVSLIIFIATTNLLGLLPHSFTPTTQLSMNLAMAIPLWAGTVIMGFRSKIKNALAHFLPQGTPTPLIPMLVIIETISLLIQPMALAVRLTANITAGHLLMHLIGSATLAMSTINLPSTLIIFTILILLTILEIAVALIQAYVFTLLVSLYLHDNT
UniProt P42285: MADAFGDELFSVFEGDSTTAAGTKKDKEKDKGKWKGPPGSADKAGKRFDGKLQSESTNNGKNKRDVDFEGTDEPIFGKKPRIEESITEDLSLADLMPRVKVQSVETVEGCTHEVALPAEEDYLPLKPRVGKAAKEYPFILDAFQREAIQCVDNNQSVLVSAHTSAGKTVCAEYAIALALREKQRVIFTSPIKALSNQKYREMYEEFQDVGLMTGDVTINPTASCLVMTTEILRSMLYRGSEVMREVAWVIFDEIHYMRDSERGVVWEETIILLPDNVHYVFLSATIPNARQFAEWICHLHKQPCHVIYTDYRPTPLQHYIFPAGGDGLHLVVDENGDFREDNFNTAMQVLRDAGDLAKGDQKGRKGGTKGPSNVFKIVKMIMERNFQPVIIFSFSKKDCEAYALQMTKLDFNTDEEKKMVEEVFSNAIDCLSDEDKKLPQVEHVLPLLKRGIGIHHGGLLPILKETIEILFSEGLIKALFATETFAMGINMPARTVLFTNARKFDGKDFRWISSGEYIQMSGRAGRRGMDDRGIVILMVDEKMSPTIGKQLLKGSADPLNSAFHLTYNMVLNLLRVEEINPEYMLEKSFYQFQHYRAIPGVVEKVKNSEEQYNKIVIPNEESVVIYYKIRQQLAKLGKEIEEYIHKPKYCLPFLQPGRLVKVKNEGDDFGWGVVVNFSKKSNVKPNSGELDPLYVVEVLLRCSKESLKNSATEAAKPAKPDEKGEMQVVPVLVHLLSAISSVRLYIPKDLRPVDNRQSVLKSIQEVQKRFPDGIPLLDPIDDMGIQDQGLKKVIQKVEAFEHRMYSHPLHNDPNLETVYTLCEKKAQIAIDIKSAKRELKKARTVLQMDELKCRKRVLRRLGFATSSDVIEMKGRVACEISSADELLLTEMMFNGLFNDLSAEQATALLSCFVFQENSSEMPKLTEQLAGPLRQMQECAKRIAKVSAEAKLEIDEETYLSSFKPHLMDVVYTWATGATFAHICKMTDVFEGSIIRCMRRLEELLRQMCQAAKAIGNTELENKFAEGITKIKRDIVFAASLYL
UniProt Q99707: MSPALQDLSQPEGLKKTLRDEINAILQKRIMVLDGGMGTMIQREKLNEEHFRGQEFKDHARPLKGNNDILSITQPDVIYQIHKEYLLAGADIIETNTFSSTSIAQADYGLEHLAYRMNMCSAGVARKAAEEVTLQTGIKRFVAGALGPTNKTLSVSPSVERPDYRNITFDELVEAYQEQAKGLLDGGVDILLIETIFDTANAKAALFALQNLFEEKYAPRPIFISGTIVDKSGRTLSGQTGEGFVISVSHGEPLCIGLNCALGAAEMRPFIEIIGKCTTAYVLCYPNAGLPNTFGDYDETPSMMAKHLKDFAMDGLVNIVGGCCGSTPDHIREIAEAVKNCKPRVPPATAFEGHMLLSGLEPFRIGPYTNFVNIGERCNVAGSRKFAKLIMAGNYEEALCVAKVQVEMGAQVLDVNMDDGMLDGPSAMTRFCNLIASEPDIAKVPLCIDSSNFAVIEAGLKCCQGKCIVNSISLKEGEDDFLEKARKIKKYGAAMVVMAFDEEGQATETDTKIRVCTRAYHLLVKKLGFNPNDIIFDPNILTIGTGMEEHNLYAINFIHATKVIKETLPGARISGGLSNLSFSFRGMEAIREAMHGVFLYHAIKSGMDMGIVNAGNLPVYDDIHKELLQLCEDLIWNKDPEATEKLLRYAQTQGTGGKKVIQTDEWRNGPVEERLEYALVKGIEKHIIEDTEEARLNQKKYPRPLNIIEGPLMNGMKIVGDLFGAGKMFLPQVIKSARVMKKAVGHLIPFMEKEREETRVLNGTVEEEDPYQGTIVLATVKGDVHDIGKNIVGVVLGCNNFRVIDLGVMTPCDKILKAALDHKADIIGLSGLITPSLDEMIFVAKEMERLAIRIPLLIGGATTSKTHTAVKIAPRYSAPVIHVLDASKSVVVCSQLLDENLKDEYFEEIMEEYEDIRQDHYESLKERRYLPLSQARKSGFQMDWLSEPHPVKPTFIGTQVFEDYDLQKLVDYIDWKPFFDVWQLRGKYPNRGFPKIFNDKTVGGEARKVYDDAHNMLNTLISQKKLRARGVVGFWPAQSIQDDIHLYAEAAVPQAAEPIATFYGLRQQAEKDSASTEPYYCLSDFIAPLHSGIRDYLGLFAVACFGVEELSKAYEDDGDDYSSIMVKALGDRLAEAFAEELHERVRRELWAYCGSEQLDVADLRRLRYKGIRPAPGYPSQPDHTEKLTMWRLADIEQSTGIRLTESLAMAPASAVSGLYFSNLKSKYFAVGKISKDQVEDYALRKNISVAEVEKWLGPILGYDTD

Legend:
Experiment in all cases: log2 fold change, soluble protein after heating vs DMSO (PISA); higher = thermal stabilisation; K562 lysate, 10 uM; active = over 0.2 and 3.5 SD of the protein, either way, in both replicates (recomputed)
erlotinib = compound: C#Cc1cccc(Nc2ncnc3cc(OCCOC)c(OCCOC)cc23)c1 [erlotinib]
Summary of the method: (§1)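 A 30 min treatment with 10 μM compound was applied to crude K562 extract at 1 mg/mL protein in PBS pH 7.4 with 1 mM MgCl2. Heating for 3 min spanned 48°C-58°C, after which aliquots were pooled, adjusted to 0.5% NP-40 at 4°C and spun at 21,000xg for 90 min. TMTpro 16plex LC-MS/MS of the supernatant, with channel sums equalised, gave values recorded as log-two fold change in thermal stability against solvent controls, from duplicates.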

[1] = compound: C/C(=N\NC(=O)C1=CC(=CC=C1)S(=O)(=O)N2CCOCC2)/C3=C(C=CC(=C3)Cl)O
Summary of the method: as §1

[2] = compound: C1=CC(=CC=C1C2=NC3=C(N2)C=C(C=C3)C(=O)N)OC4=CC=C(C=C4)Cl
Summary of the method: as §1

[3] = compound: C1=CC2=C(C=CC(=C2)/C=C\3/C(=O)NC(=NCC4=CC=CS4)S3)N=C1
Summary of the method: as §1

[4] = compound: C1=CC2=NC=CN=C2C=C1/C=C/3\C(=O)NC(=O)S3
Summary of the method: as §1

[5] = compound: C1=CC=C(C=C1)C2=NC(=C(N2)C3=CC=NC=C3)C4=CC(=C(C=C4)Cl)O
Summary of the method: as §1

[6] = compound: C1=CC=C2C(=C1)C3=NNC4=CC=CC(=C43)C2=O
Summary of the method: as §1

[7] = compound: C1CCN(C1)C(=O)NC2=CC=CC(=C2)NC3=NC=C(C(=N3)NCCC4=CN=CN4)Br
Summary of the method: as §1

[8] = compound: C1CN(CCC1(CC2=CC=C(C=C2)Cl)N)C3=NC=NC4=C3C=CN4
Summary of the method: as §1

IRAK-1-4 Inhibitor I = compound: C1COCCN1CCN2C3=CC=CC=C3N=C2NC(=O)C4=CC(=CC=C4)[N+](=O)[O-] [IRAK-1-4 Inhibitor I]
Summary of the method: as §1

ibrutinib = compound: C=CC(=O)N1CCC[C@@H](n2nc(-c3ccc(Oc4ccccc4)cc3)c3c(N)ncnc32)C1 [ibrutinib]
Summary of the method: as §1

[9] = compound: CC(=O)c1cnc2ccc(-c3cc(Cl)c(O)c(Cl)c3)nc2c1N[C@H]1CC[C@H](CN(C)C)CC1
Summary of the method: as §1

ralimetinib = compound: CC(C)(C)Cn1c(N)nc2ccc(-c3[nH]c(C(C)(C)C)nc3-c3ccc(F)cc3)nc21 [ralimetinib]
Summary of the method: as §1

[10] = compound: CC(C)(O)CC(=O)NCCn1ccc2ncnc(Nc3ccc(Oc4cccc(C(F)(F)F)c4)c(Cl)c3)c21
Summary of the method: as §1

[11] = compound: CC(C)C1=C2N=C(C=C(N2N=C1)NCC3=CC=CC=C3)NCCCCCCN
Summary of the method: as §1

[12] = compound: CC1=C(C(CC(=O)N1)C2=CC=C(C=C2)C(F)(F)F)C(=O)NC3=C(C=C4C(=C3)C=NN4)F
Summary of the method: as §1

[13] = compound: CC1=C(C2=C(C=C1)C(=O)C3=CC=CC=C3N2CCCN)C
Summary of the method: as §1

[14] = compound: CC1=C(C=C(C=C1)NC(=O)C2=CC(=CC=C2)C(C)(C)C#N)NC3=CC4=C(C=C3)N=CN(C4=O)C
Summary of the method: as §1

[15] = compound: CC1=C(C=C(C=C1)NC(=O)C2=CC(=CC=C2)N(C)C)NC(=O)C3=CC=C(C=C3)O
Summary of the method: as §1

[16] = compound: CC1=CC=C(C=C1)SC2=C3C=C(SC3=CN=C2)C(=O)N
Summary of the method: as §1

Measured: log2 fold change

MRPL53 (UniProt Q96EL3)
inactive: erlotinib -0.036 | [1] -0.103 | [2] 0.042 | [3] 0.014 | [4] -0.004 | [5] -0.015 | [6] -0.049 | [7] -0.07 | [8] 0.096 | IRAK-1-4 Inhibitor I 0.026 | ibrutinib 0.041 | [9] -0.018 | ralimetinib 0.062 | [10] -0.047 | [11] 0.016 | [12] -0.047 | [13] 0.011 | [14] 0.042 | [15] 0.044 | [16] 0.011

MRPL51 (UniProt Q4U2R6)
inactive: erlotinib -0.067 | [1] -0.05 | [2] -0.027 | [3] 0.08 | [4] -0.036 | [5] -0.039 | [6] 0.036 | [7] -0.006 | [8] -0.09 | IRAK-1-4 Inhibitor I 0.001 | ibrutinib 0.02 | [9] -0.005 | ralimetinib 0.048 | [10] 0.011 | [11] -0.038 | [12] 0.066 | [13] 0.006 | [14] -0.062 | [15] 0.051 | [16] 0.017

MRTFB isoform 5 (UniProt Q9ULH7)
inactive: erlotinib -0.002 | [1] 0.014 | [2] -0.024 | [3] 0.031 | [4] 0.005 | [5] -0.021 | [6] -0.019 | [7] -0.007 | [8] 0.042 | IRAK-1-4 Inhibitor I 0.094 | ibrutinib 0.026 | [9] 0.052 | ralimetinib 0.014 | [10] -0.01 | [11] 0.041 | [12] -0.014 | [13] -0.017 | [14] 0.089 | [15] -0.001 | [16] -0.026

MSN (UniProt P26038)
inactive: erlotinib -0.015 | [1] 0.045 | [2] 0.006 | [3] -0.019 | [4] -0.032 | [5] -0.007 | [6] 0.014 | [7] 0.014 | [8] 0 | IRAK-1-4 Inhibitor I -0.006 | ibrutinib 0.039 | [9] 0.004 | ralimetinib 0.001 | [10] 0.016 | [11] 0.002 | [12] -0.035 | [13] 0.003 | [14] -0.017 | [15] -0.019 | [16] 0.009

MRPS28 (UniProt Q9Y2Q9)
inactive: erlotinib -0.019 | [1] 0.005 | [2] -0.032 | [3] 0.031 | [4] -0.009 | [5] -0.021 | [6] 0.003 | [7] 0.012 | [8] 0.039 | IRAK-1-4 Inhibitor I -0.066 | ibrutinib 0.031 | [9] -0.017 | ralimetinib -0.017 | [10] 0.031 | [11] -0.035 | [12] 0.051 | [13] 0.001 | [14] -0.02 | [15] 0.013 | [16] -0.001

MT-ATP6 (UniProt P00846)
inactive: erlotinib -0.076 | [1] 0.032 | [2] -0.064 | [3] -0.166 | [4] 0.032 | [5] -0.03 | [6] 0.165 | [7] -0.044 | [8] -0.034 | IRAK-1-4 Inhibitor I 0.087 | ibrutinib -0.11 | [9] -0.06 | ralimetinib -0.039 | [10] -0.141 | [11] -0.106 | [12] 0.064 | [13] -0.016 | [14] 0.034 | [15] -0.16 | [16] 0.13

MRPS6 (UniProt P82932)
inactive: erlotinib 0.014 | [1] -0.045 | [2] 0.049 | [3] -0.04 | [4] -0.027 | [5] -0.037 | [6] -0.032 | [7] 0 | [8] 0.098 | IRAK-1-4 Inhibitor I -0.04 | ibrutinib 0.036 | [9] 0.039 | ralimetinib 0.016 | [10] -0.012 | [11] -0.034 | [12] 0.065 | [13] -0.063 | [14] 0.05 | [15] 0.037 | [16] 0.03

MRPL3 (UniProt P09001)
inactive: erlotinib -0.034 | [1] 0.002 | [2] 0.017 | [3] 0.039 | [4] -0.013 | [5] 0.004 | [6] -0.042 | [7] -0.039 | [8] -0.039 | IRAK-1-4 Inhibitor I 0.01 | ibrutinib 0.122 | [9] 0.005 | ralimetinib 0.038 | [10] 0.011 | [11] 0.027 | [12] 0.015 | [13] -0.106 | [14] -0.073 | [15] 0.029 | [16] 0.039

MTREX (UniProt P42285)
inactive: erlotinib -0.02 | [1] -0.012 | [2] -0.008 | [3] -0.002 | [4] 0.001 | [5] 0.008 | [6] -0.013 | [7] -0.025 | [8] -0.014 | IRAK-1-4 Inhibitor I 0 | ibrutinib 0.001 | [9] 0.003 | ralimetinib 0.008 | [10] -0.011 | [11] -0.01 | [12] -0.006 | [13] 0.001 | [14] -0.01 | [15] -0.004 | [16] 0.006

MTMR1 (UniProt Q13613)
inactive: erlotinib 0.044 | [1] 0.134 | [2] 0.105 | [3] 0.021 | [4] -0.051 | [5] 0.058 | [6] -0.059 | [7] -0.013 | [8] 0.067 | IRAK-1-4 Inhibitor I -0.039 | ibrutinib -0.006 | [9] 0.036 | ralimetinib 0.042 | [10] -0.034 | [11] -0.031 | [12] 0.008 | [13] 0.007 | [14] -0.041 | [15] 0.007 | [16] -0.027

MUC1, A0A087WWM1
inactive: erlotinib 0.038 | [1] 0.074 | [2] 0.077 | [3] -0.073 | [4] -0.018 | [5] -0.023 | [6] -0.028 | [7] 0.047 | [8] 0.029 | IRAK-1-4 Inhibitor I -0.002 | ibrutinib -0.075 | [9] 0.006 | ralimetinib 0.002 | [10] -0.006 | [11] -0.075 | [12] 0.089 | [13] 0.084 | [14] 0.063 | [15] 0.019 | [16] -0.037

MTDH (UniProt E5RJU9)
inactive: erlotinib 0.026 | [1] -0.009 | [2] 0.177 | [3] 0.057 | [4] -0.314 | [5] -0.014 | [6] -0.117 | [7] -0.192 | [8] 0.12 | IRAK-1-4 Inhibitor I 0.069 | ibrutinib -0.047 | [9] -0.246 | ralimetinib -0.128 | [10] -0.136 | [11] 0.117 | [12] -0.115 | [13] -0.213 | [14] -0.025 | [15] -0.001 | [16] 0.028

MTR (UniProt Q99707)
inactive: erlotinib -0.005 | [1] -0.044 | [2] 0.011 | [3] 0.002 | [4] 0.014 | [5] 0.002 | [6] -0.029 | [7] -0.029 | [8] 0.006 | IRAK-1-4 Inhibitor I -0.006 | ibrutinib 0.005 | [9] 0 | ralimetinib 0.032 | [10] -0.009 | [11] 0.009 | [12] 0.011 | [13] -0.011 | [14] -0.003 | [15] 0.021 | [16] 0.027

MRPS25 (UniProt P82663)
inactive: erlotinib -0.079 | [1] 0.012 | [2] 0.106 | [3] -0.084 | [4] -0.023 | [5] -0.028 | [6] -0.005 | [7] -0.033 | [8] 0.031 | IRAK-1-4 Inhibitor I 0.039 | ibrutinib -0.001 | [9] 0.07 | ralimetinib -0.037 | [10] 0.038 | [11] 0.046 | [12] -0.071 | [13] -0.141 | [14] -0.015 | [15] 0.023 | [16] 0.065

MRPL54 (UniProt Q6P161)
inactive: erlotinib 0.014 | [1] 0.034 | [2] 0.035 | [3] -0.026 | [4] -0.024 | [5] 0.001 | [6] 0.024 | [7] 0.004 | [8] 0.007 | IRAK-1-4 Inhibitor I 0.04 | ibrutinib 0.024 | [9] 0.032 | ralimetinib 0.027 | [10] 0.002 | [11] -0.047 | [12] -0.033 | [13] 0.017 | [14] -0.017 | [15] -0.001 | [16] -0.005

Quoted at random: two records from the list, in no set order.
MRPS25 (UniProt P82663)
inactive: erlotinib -0.079 | [1] 0.012 | [2] 0.106 | [3] -0.084 | [4] -0.023 | [5] -0.028 | [6] -0.005 | [7] -0.033 | [8] 0.031 | IRAK-1-4 Inhibitor I 0.039 | ibrutinib -0.001 | [9] 0.07 | ralimetinib -0.037 | [10] 0.038 | [11] 0.046 | [12] -0.071 | [13] -0.141 | [14] -0.015 | [15] 0.023 | [16] 0.065

MTDH (UniProt E5RJU9)
inactive: erlotinib 0.026 | [1] -0.009 | [2] 0.177 | [3] 0.057 | [4] -0.314 | [5] -0.014 | [6] -0.117 | [7] -0.192 | [8] 0.12 | IRAK-1-4 Inhibitor I 0.069 | ibrutinib -0.047 | [9] -0.246 | ralimetinib -0.128 | [10] -0.136 | [11] 0.117 | [12] -0.115 | [13] -0.213 | [14] -0.025 | [15] -0.001 | [16] 0.028

More entries follow:

MRPL28 (UniProt Q13084)
inactive: erlotinib -0.112 | [1] -0.085 | [2] 0.027 | [3] 0.011 | [4] -0.074 | [5] 0.017 | [6] 0.024 | [7] 0.042 | [8] -0.031 | IRAK-1-4 Inhibitor I -0.03 | ibrutinib 0.151 | [9] 0.04 | ralimetinib 0.027 | [10] -0.005 | [11] 0.012 | [12] -0.112 | [13] -0.017 | [14] 0.057 | [15] -0.012 | [16] 0.023
